The record followed here is article PMC12101628.

Chains of the proteins cited; added tags and fusions are not shown. Residues count along the entry.
UniProt P34741, residues 19-201: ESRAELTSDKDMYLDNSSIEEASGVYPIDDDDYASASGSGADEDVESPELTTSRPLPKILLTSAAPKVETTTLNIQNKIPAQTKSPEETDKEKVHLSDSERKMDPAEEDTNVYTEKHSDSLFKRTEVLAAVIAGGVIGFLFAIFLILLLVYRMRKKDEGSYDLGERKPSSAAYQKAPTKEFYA

In the test the target is T1, heparanase 1 (HPSE) (human (endogenous in SV-HUC-1)) (UniProt Q9Y251).
T1 sequence: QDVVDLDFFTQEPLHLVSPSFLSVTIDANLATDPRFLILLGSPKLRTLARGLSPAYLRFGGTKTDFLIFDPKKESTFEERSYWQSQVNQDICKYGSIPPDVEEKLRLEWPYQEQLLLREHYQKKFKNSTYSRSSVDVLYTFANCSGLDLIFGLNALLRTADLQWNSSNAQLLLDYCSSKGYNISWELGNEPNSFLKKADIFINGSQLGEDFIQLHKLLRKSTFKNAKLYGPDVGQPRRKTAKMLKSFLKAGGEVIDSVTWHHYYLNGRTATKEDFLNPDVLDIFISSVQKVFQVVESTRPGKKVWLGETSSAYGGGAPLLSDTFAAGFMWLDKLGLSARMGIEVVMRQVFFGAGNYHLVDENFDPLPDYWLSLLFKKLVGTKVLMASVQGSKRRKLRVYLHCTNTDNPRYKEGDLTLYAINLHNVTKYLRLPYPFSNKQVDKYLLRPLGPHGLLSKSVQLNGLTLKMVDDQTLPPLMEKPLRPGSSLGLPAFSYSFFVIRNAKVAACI
As to the kind of experiment: co-IP; endogenous proteins in SV-HUC-1 lysate (IP lysate with protease inhibitors); primary antibody on magnetic beads, lysate added at 4 C overnight, Western blot; which protein was precipitated is not told. On the technique in general: Immunoblotting shows a protein as a band on a membrane.

These are yes or no findings as the source states them, for the method shown. In cells and extracts the contact can be indirect. Some entries that bind do so weakly or less than the wild type.

For the substance “syndecan-2 (SDC-2) (from UniProt P34741 19-201)”, the binding result is “binds”.
